Test results as given in publication PMC7819943, “Rice protein-binding microarrays: a tool to detect cis-acting elements near promoter regions in rice”.
This is one part of the list.

Biological target: T1, OsSMF1 (Oryza sativa, UniProt Q6ZLB0 1-436)
T1 sequence: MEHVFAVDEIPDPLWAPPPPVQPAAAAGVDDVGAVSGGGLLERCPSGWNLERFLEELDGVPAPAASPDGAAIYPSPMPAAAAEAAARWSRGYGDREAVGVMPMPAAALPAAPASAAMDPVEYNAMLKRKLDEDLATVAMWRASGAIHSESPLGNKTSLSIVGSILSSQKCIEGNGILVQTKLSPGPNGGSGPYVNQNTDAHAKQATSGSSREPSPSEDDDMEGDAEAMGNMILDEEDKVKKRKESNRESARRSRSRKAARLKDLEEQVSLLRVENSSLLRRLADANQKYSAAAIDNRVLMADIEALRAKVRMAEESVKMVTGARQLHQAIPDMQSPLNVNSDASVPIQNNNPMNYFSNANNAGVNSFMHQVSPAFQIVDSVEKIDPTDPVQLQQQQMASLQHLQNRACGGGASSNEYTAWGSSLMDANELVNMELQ
Experiment: protein-binding microarray (RPBM); PBS, 2% BSA, 51.3 ng/ul salmon testes DNA, 50 uM zinc acetate, 200 nM TF, 25 C, 1 h; high values mean tight binding
Settings: protein: recombinant; tags: N-terminal polyhistidine and DsRed monomer fusion (pET32a); chain copies: 2; label: CyDye5-dUTP incorporated in the synthesized complementary strand; 3' TTTTT single-stranded linker to array surface; dsDNA, one strand shown
In short: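 Binding signal is defined as the fluorescence intensity of each feature in arbitrary units, read on an Axon 4000B scanner. Transcription factors with N-terminal polyhistidine and DsRed fusions came from E. coli BL21-CodonPlus and were purified on Ni–NTA. They were incubated at 200 nM for 1 h at 25 °C on a custom Agilent array that had been made double-stranded with Cy5-dUTP, with 50 µM zinc acetate present, and the array was washed.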

| Sequence | binding signal |
| --- | --- |
| CTACTCTGTTGTCAACTACGTGTCAGCACTTCAAATCGCCCGGAGTCACCTAGTGCAG | 10500 fluorescence intensity (a.u.) |
| TGATTGTAACTGGATGACATGGACTATGTTTTGATGAATTCGGAGTCACCTAGTGCAG | 4690 fluorescence intensity (a.u.) |
| CAGCGCGGCGCGTGCCACGCAATCTCGACCACTGTCTACGCGGAGTCACCTAGTGCAG | 6670 fluorescence intensity (a.u.) |
| TTATTTAAAGGAGGCGGGGTAGGAGGGAGAGGGAGATAGGCGGAGTCACCTAGTGCAG | 32400 fluorescence intensity (a.u.) |
| CCAACATTGACCAGTCGGCACTCACACCACTATATCCCTTCGGAGTCACCTAGTGCAG | 3930 fluorescence intensity (a.u.) |
| ATCACCATCCACTAACAAGATGTCACATCATCATCCACTACGGAGTCACCTAGTGCAG | 3650 fluorescence intensity (a.u.) |
| TTCATCGGTGACCAGAAAATCATCATGCAGTCTCTAAGGTCGGAGTCACCTAGTGCAG | 3250 fluorescence intensity (a.u.) |
| CCCGGTGGATGACGACCTGCTCCCAGTCCTCGTGGAGGTACGGAGTCACCTAGTGCAG | 3240 fluorescence intensity (a.u.) |
| GACCACGACCCACGTCACCTACCCCGGCAAGACCAGAGCGCGGAGTCACCTAGTGCAG | 14000 fluorescence intensity (a.u.) |
| ACGTGTGTTAAGGGTGTGTGTAGTATATGCACGTGATGTACGGAGTCACCTAGTGCAG | 3320 fluorescence intensity (a.u.) |
| GTCGCGCCGACTCACTCTCGCCGCCGCCGCCGCCGCCGCCCGGAGTCACCTAGTGCAG | 3330 fluorescence intensity (a.u.) |
| AGAAATTAAACTCTAACTAGTATACGTATATTCACAGTCACGGAGTCACCTAGTGCAG | 3270 fluorescence intensity (a.u.) |
| AAAAGTGTGATCCATCCACGTGGTGTTTTGAGCCACTGCACGGAGTCACCTAGTGCAG | 7230 fluorescence intensity (a.u.) |
| ATCTATATACTTTACTTCATGATCTGGCAACTGATCAGGTCGGAGTCACCTAGTGCAG | 5410 fluorescence intensity (a.u.) |
| GAACGGTCAAATAGCCGTTAGTGCCACGTGGCGCCTTCCCCGGAGTCACCTAGTGCAG | 25100 fluorescence intensity (a.u.) |
| CTCTCCTCGGGTTCGACTCTCCACCGCTGTCACTCACTCTCGGAGTCACCTAGTGCAG | 4340 fluorescence intensity (a.u.) |
| AAAGCCGCTATTCCTGTGAGGCCCTGACGCCGACCGAAACCGGAGTCACCTAGTGCAG | 3270 fluorescence intensity (a.u.) |
| TCGAACACCGCCAGGGCCTTCTCGGACACGCTCTTGTCAGCGGAGTCACCTAGTGCAG | 3850 fluorescence intensity (a.u.) |
| CGACGGAGGTCGGATCGAAGGAGGGGAGCGGTGGTGACGACGGAGTCACCTAGTGCAG | 3250 fluorescence intensity (a.u.) |
| ATATATGTTTAGATTTGTAGGCCTATGATACGTCAAATTTCGGAGTCACCTAGTGCAG | 3180 fluorescence intensity (a.u.) |
| TCTCCCACGATTCGCCTTACATGTTTATTACACGCCATGACGGAGTCACCTAGTGCAG | 3670 fluorescence intensity (a.u.) |

| Sequence | binding signal |
| --- | --- |
| ACCACGACCACCACAACACCACCACCTCTTCTCCTAGTCACGGAGTCACCTAGTGCAG | 3570 fluorescence intensity (a.u.) |
| TGGTTTTGCTAGTTGTGCCCATGGCGATTAAGGACCGGTTCGGAGTCACCTAGTGCAG | 3380 fluorescence intensity (a.u.) |
| TGGACGTCCTCAGAAAACCATGACGACTCAATGGCGGGAACGGAGTCACCTAGTGCAG | 3200 fluorescence intensity (a.u.) |
| CTTGTACTGATGTGGAGGAGGAAGGTGTTGTTGCTTGTATCGGAGTCACCTAGTGCAG | 4160 fluorescence intensity (a.u.) |
| CAAACGATCCTAAACTGCCACCTAACGCTTCCTACGAACACGGAGTCACCTAGTGCAG | 3980 fluorescence intensity (a.u.) |
| CCCAGATCCCAAGGGGCACACGTGGCAGCACGGGGCGTCACGGAGTCACCTAGTGCAG | 9760 fluorescence intensity (a.u.) |
| TACGTGGGTGCTGCATGGCTTAGTGAGTAGTGGTTGGCAGCGGAGTCACCTAGTGCAG | 3480 fluorescence intensity (a.u.) |
| AAATGTAAATATTAATGAATCGTTTGTTTACGATGAATAACGGAGTCACCTAGTGCAG | 6270 fluorescence intensity (a.u.) |
| GTTTGCCATCCACGATATCCGTCGATTCGCGTCACGTCAGCGGAGTCACCTAGTGCAG | 8770 fluorescence intensity (a.u.) |
| AGCTCGTCGTTGCCCACCCGTGCTCGCCCGTCGTGTGGACCGGAGTCACCTAGTGCAG | 3770 fluorescence intensity (a.u.) |
| GTCGATCACCTGGGTCCACACGTCAGTGTCTAATCCAGAACGGAGTCACCTAGTGCAG | 5120 fluorescence intensity (a.u.) |
| TCAAATGTTACTACACGTAGTACGCTAGCACGTCTACAGGCGGAGTCACCTAGTGCAG | 3870 fluorescence intensity (a.u.) |
| CCAAATATTTGACGTGACAGCATGAAAATTTTCGTTTTGGCGGAGTCACCTAGTGCAG | 3980 fluorescence intensity (a.u.) |
| AAAATTGACTGTACAATGACATTTTGTAGAACTTGCACTCCGGAGTCACCTAGTGCAG | 3540 fluorescence intensity (a.u.) |
| CGGCACGCGCGAAACGAGCAGTTTCTATCAGCACGTGATGCGGAGTCACCTAGTGCAG | 21500 fluorescence intensity (a.u.) |
| GGATGCATGCATGCTGATGATGTCAGGCTGATACGTGCGTCGGAGTCACCTAGTGCAG | 7340 fluorescence intensity (a.u.) |
| AGAGTACATTTTACGGATGCGTAATCCTAAGTAAGCACATCGGAGTCACCTAGTGCAG | 3340 fluorescence intensity (a.u.) |
| GAAGTCTCTTGTCGTCACGCTTTTGGAGCACTTTGGACGCCGGAGTCACCTAGTGCAG | 4380 fluorescence intensity (a.u.) |
| TTGCTGCAATTCCACATGGAGAAACGAATCTTCATCAGTTCGGAGTCACCTAGTGCAG | 24300 fluorescence intensity (a.u.) |
| AGCCGCTCCCCGAAGCTGTCGCTGGCGTAATGATGCGAGCCGGAGTCACCTAGTGCAG | 3420 fluorescence intensity (a.u.) |
| TAAACTTTTGACCTTGTCAGTGTCAGATGACATAATGGCACGGAGTCACCTAGTGCAG | 3960 fluorescence intensity (a.u.) |

Another view of part of the listing above:
AAAATTGACTGTACAATGACATTTTGTAGAACTTGCACTCCGGAGTCACCTAGTGCAG
  binding signal = 3540 fluorescence intensity (a.u.)
CGGCACGCGCGAAACGAGCAGTTTCTATCAGCACGTGATGCGGAGTCACCTAGTGCAG
  binding signal = 21500 fluorescence intensity (a.u.)
GGATGCATGCATGCTGATGATGTCAGGCTGATACGTGCGTCGGAGTCACCTAGTGCAG
  binding signal = 7340 fluorescence intensity (a.u.)
